Test results taken from paper doi:10.1101/2023.12.03.569805.
Results are given in words; binding and its absence hold for the method and conditions named. Binding seen in cells or lysates may run through a third protein. Here binding means that the protein was enriched with, or labelled near, the bait; the list need not be complete. Sequences can lack the tags named with a protein.

Amino acid sequences for entries named in this document (tags omitted).
UniProt Q92793: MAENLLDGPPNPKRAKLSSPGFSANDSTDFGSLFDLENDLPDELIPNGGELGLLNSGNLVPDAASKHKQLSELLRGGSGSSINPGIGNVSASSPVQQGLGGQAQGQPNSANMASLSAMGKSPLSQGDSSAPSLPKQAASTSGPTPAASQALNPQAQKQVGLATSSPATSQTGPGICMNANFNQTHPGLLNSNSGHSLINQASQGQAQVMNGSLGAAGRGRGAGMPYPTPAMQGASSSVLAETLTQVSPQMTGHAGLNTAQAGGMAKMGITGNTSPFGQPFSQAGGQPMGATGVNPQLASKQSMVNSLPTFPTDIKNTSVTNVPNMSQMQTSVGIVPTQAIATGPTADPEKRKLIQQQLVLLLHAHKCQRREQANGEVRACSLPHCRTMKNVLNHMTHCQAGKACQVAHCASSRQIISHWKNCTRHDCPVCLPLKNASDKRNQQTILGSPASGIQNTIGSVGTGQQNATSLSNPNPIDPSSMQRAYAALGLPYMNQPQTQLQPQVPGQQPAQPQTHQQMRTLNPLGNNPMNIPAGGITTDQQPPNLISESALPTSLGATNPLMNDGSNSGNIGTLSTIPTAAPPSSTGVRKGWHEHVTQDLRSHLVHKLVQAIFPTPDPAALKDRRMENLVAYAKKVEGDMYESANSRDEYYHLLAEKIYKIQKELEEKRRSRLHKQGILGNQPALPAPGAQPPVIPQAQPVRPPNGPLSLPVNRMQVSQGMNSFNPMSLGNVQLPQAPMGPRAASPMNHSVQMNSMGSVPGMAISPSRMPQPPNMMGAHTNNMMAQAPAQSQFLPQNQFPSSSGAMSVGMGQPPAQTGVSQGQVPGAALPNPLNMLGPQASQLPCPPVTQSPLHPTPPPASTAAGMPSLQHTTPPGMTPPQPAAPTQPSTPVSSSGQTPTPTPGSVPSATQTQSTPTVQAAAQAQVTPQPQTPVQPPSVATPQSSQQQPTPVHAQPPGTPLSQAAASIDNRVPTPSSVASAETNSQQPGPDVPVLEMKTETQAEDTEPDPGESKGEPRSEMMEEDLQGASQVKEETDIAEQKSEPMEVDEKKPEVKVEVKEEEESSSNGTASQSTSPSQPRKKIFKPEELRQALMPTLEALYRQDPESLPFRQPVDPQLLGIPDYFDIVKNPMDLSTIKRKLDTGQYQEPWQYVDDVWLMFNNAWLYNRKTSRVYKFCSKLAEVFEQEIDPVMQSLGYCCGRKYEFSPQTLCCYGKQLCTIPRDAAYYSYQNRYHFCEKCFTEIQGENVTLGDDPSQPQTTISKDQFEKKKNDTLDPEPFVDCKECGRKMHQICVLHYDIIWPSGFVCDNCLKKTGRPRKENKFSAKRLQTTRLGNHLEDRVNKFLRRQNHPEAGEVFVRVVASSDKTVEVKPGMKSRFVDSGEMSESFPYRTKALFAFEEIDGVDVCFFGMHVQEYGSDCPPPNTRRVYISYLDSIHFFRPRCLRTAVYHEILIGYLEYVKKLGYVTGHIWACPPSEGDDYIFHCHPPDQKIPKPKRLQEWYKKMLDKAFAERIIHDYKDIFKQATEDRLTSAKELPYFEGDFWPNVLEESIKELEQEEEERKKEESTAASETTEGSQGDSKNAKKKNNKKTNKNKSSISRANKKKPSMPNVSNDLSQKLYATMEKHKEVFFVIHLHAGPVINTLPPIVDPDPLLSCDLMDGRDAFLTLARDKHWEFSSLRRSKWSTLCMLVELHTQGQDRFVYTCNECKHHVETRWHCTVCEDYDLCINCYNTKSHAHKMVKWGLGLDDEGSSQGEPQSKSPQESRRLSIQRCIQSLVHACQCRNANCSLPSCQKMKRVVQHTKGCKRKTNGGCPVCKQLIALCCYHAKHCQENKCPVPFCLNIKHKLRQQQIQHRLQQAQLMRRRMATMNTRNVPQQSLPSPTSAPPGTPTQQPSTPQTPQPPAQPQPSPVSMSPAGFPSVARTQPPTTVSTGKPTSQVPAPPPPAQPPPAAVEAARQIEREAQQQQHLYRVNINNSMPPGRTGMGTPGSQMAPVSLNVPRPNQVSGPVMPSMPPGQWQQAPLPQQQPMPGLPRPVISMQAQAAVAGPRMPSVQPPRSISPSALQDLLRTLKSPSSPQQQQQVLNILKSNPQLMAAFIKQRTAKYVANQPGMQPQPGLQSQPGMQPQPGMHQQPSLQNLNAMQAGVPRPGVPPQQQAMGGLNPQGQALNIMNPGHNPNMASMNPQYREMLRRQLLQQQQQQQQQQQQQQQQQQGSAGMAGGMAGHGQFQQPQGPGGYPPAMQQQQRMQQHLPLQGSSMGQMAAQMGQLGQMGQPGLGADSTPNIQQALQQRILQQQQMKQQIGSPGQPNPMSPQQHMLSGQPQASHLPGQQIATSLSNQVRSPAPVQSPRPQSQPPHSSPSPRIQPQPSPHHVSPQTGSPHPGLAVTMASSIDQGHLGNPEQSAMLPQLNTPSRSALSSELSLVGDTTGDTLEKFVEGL

B1: TSC1 (protein, UniProt Q92574 1-1164)
chain: MAQQANVGELLAMLDSPMLGVRDDVTAVFKENLNSDRGPMLVNTLVDYYLETSSQPALHILTTLQEPHDKHLLDRINEYVGKAATRLSILSLLGHVIRLQPSWKHKLSQAPLLPSLLKCLKMDTDVVVLTTGVLVLITMLPMIPQSGKQHLLDFFDIFGRLSSWCLKKPGHVAEVYLVHLHASVYALFHRLYGMYPCNFVSFLRSHYSMKENLETFEEVVKPMMEHVRIHPELVTGSKDHELDPRRWKRLETHDVVIECAKISLDPTEASYEDGYSVSHQISARFPHRSADVTTSPYADTQNSYGCATSTPYSTSRLMLLNMPGQLPQTLSSPSTRLITEPPQATLWSPSMVCGMTTPPTSPGNVPPDLSHPYSKVFGTTAGGKGTPLGTPATSPPPAPLCHSDDYVHISLPQATVTPPRKEERMDSARPCLHRQHHLLNDRGSEEPPGSKGSVTLSDLPGFLGDLASEEDSIEKDKEEAAISRELSEITTAEAEPVVPRGGFDSPFYRDSLPGSQRKTHSAASSSQGASVNPEPLHSSLDKLGPDTPKQAFTPIDLPCGSADESPAGDRECQTSLETSIFTPSPCKIPPPTRVGFGSGQPPPYDHLFEVALPKTAHHFVIRKTEELLKKAKGNTEEDGVPSTSPMEVLDRLIQQGADAHSKELNKLPLPSKSVDWTHFGGSPPSDEIRTLRDQLLLLHNQLLYERFKRQQHALRNRRLLRKVIKAAALEEHNAAMKDQLKLQEKDIQMWKVSLQKEQARYNQLQEQRDTMVTKLHSQIRQLQHDREEFYNQSQELQTKLEDCRNMIAELRIELKKANNKVCHTELLLSQVSQKLSNSESVQQQMEFLNRQLLVLGEVNELYLEQLQNKHSDTTKEVEMMKAAYRKELEKNRSHVLQQTQRLDTSQKRILELESHLAKKDHLLLEQKKYLEDVKLQARGQLQAAESRYEAQKRITQVFELEILDLYGRLEKDGLLKKLEEEKAEAAEAAEERLDCCNDGCSDSMVGHNEEASGHNGETKTPRPSSARGSSGSRGGGGSSSSSSELSTPEKPPHQRAGPFSSRWETTMGEASASIPTTVGSLPSSKSFLGMKARELFRNKSESQCDEDGMTSSLSESLKTELGKDLGVEAKIPLNLDGPHPSPPTPDSVGQLHIMDYNETHHEHS
B2: KIAA0232 (endogenous prey) (protein, UniProt Q92628 1-1395)
chain: MYPICTVVVDGLPSESSSSSYPGPVSVSEMSLLHALGPVQTWLGQELEKCGIDAMIYTRYVLSLLLHDSYDYDLQEQENDIFLGWEKGAYKKWGKSKKKCSDLTLEEMKKQAAVQCLRSASDESSGIETLVEELCSRLKDLQSKQEEKIHKKLEGSPSPEAELSPPAKDQVEMYYEAFPPLSEKPVCLQEIMTVWNKSKVCSYSSSSSSSTAPPASTDTSSPKDCNSESEVTKERSSEVPTTVHEKTQSKSKNEKENKFSNGTIEEKPALYKKQIRHKPEGKIRPRSWSSGSSEAGSSSSGNQGELKASMKYVKVRHKAREIRNKKGRNGQSRLSLKHGEKAERNIHTGSSSSSSSGSVKQLCKRGKRPLKEIGRKDPGSTEGKDLYMENRKDTEYKEEPLWYTEPIAEYFVPLSRKSKLETTYRNRQDTSDLTSEAVEELSESVHGLCISNNNLHKTYLAAGTFIDGHFVEMPAVINEDIDLTGTSLCSLPEDNKYLDDIHLSELTHFYEVDIDQSMLDPGASETMQGESRILNMIRQKSKENTDFEAECCIVLDGMELQGERAIWTDSTSSVGAEGLFLQDLGNLAQFWECCSSSSGDADGESFGGDSPVRLSPILDSTVLNSHLLAGNQELFSDINEGSGINSCFSVFEVQCSNSVLPFSFETLNLGNENTDSSANMLGKTQSRLLIWTKNSAFEENEHCSNLSTRTCSPWSHSEETRSDNETLNIQFEESTQFNAEDINYVVPRVSSNYVDEELLDFLQDETCQQNSRTLGEIPTLVFKKTSKLESVCGIQLEQKTENKNFETTQVCNESPHGDGYSSGVIKDIWTKMADTNSVATVEIERTDAELFSADVNNYCCCLDAEAELETLQEPDKAVRRSEYHLWEGQKESLEKRAFASSELSNVDGGDYTTPSKPWDVAQDKENTFILGGVYGELKTFNSDGEWAVVPPSHTKGSLLQCAASDVVTIAGTDVFMTPGNSFAPGHRQLWKPFVSFEQNDQPKSGENGLNKGFSFIFHEDLLGACGNFQVEDPGLEYSFSSFDLSNPFSQVLHVECSFEPEGIASFSPSFKPKSILCSDSDSEVFHPRICGVDRTQYRAIRISPRTHFRPISASELSPGGGSESEFESEKDEANIPIPSQVDIFEDPQADLKPLEEDAEKEGHYYGKSELESGKFLPRLKKSGMEKSAQTSLDSQEESTGILSVGKQNQCLECSMNESLEIDLESSEANCKIMAQCEEEINNFCGCKAGCQFPAYEDNPVSSGQLEEFPVLNTDIQGMNRSQEKQTWWEKALYSPLFPASECEECYTNAKGESGLEEYPDAKETPSNEERLLDFNRVSSVYEARCTGERDSGAKSDGFRGKMCSSASSTSEETGSEGGGEWVGPSEEELFSRTHL

Biological target: T1, FLAG-tagged DCAF7 (UniProt P61962)
T1 sequence: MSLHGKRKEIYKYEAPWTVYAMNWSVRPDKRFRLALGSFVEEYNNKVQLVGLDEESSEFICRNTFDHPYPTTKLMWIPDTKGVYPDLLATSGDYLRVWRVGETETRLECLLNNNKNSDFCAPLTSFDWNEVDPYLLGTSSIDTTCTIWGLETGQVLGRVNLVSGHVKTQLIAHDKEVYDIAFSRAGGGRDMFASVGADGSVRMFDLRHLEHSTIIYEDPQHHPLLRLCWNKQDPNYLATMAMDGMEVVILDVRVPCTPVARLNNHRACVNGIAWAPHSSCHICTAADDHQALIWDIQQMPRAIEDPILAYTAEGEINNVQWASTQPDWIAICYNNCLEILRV
Experiment: affinity purification with mass spectrometry

| Molecule | binding |
| --- | --- |
| CREBBP (from UniProt Q92793 1-2442) | binds |
| B1 | binds |
| B2 | binds |
